No constants are given. Whether binding was seen depends on the method and setting.
Target: Human PPARγ-LBD (amino acids 203–477 in isoform 1), amino-terminal His-tagged (human) (UniProt P37231)
Assay: FRET or BRET; single-emission TR-FRET (LANCE Ultra); His-tagged LBD (9.5 µL of 400 nM) with Tb cryptate anti-6×His antibody, biotin peptide (5 µL of 1 µM) with ULight-Streptavidin or FITC-Ahx peptide; buffer A (20 mM HEPES pH 7.4, 150 mM NaCl, 1 mM EDTA, 1 mM DTT, 0.005% Tween 20, 0.1% fatty acid-free BSA); room temperature, 2 h; without agonist (vehicle 1% DMSO); both purified

The chains behind the UniProt entries cited, without tags or fusion partners. Residues count along the entry.
UniProt P37231, residues 231-505: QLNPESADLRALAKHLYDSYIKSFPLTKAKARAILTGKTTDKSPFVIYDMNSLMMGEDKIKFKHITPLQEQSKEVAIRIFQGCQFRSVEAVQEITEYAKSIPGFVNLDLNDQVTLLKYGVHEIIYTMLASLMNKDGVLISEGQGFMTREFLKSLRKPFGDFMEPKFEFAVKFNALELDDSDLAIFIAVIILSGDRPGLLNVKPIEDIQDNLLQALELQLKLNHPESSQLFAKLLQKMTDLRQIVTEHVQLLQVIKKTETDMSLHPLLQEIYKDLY

PVSSMAGNTKNHPMLMNLLKDNPAQ (biotin on the N-terminus (printed biotin-PVSSM...)) [TRAP220 coactivator peptide, biotin-labeled (AAs 631–655)]
binding: no binding (condition: without pioglitazone)

Source: PMC12024163, “Competitive Ligand-Induced Recruitment of Coactivators to Specific PPARα/δ/γ Ligand-Binding Domains Revealed by Dual-Emission FRET and X-Ray Diffraction of Cocrystals” (Antioxidants, 2025)
